In PubChem BioAssay AID1508600 (Functional Genomics Laboratory (NCATS/FGL), 2020):
Out of some 53,000 sequences screened, about 3,700 (7%) were called active.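 How the source made its calls: active means gene knockdowns whose robust z-score for IL-1 alpha signal is at least 2 or at most -2, so actives lie on both sides; inactive means the rest.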 The list shows a part of the results.

Assay: Components of the Cytosolic LPS Sensing Pathway: Gene Identification via Genome-wide siRNA Screen;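 further: robust z of the log signal after scaling to non-targeting control siRNA wells of the plate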
Conditions: RAW264.7 macrophages, IL-1a HTRF, actives lie on both sides, screened at 100 nM (by protocol), cells primed 5 h with Pam3CSK4 first
Outline: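 Read-out: IL-1a HTRF on supernatant, divided by plate negative-control median ×100, log-transformed and converted to robust z-score. Cells were RAW264.7 given 100 nM siRNA, Pam3CSK4-primed 5 hours, then LipidA-transfected 24 hour.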

Which z-score does the source give for GGUGAACUGUUCUUCCUCATT against Icam1 here?
The z-score was inactive: -0.811.

For GCUGCUUAGAUACAUUUUUTT against Ddias, which z-score is on record?
Its z-score is inactive: 0.584.

With GGUUAUCCUGUUACAGUACTT against Spata2l as the sequence, how does the z-score read?
Its z-score is inactive: 0.35.

For CCUUGAAAUUCGUUAUCAUTT against Tmc7, which z-score is on record?
Its z-score is inactive: -0.225.

With “CGCGAUUGCACUCUUAUUATT against 2610001J05Rik” as the sequence, how does the z-score read?
Its z-score is inactive: 0.958.

With GGCACUAAUUUAGACAAAGTT against Ccdc66 as the sequence, how does the z-score read?
Its z-score is inactive: 1.65.

For GGUACAAUUCUUCUUUCGUTT against Olfr1420, which z-score is on record?
The z-score was inactive: -0.55.

With GGGCAUCACUUGUAAUUAATT against Bcl10 as the sequence, how does the z-score read?
The z-score was active: -2.06.

For GCUAAUCUCUCAAAUGUUUTT against Kpna1, which z-score is on record?
The z-score was inactive: 0.506.

For GGUUCGAAAUUUUCUAACCTT against Gpr50, which z-score is on record?
Its z-score is inactive: 1.24.

For GGAACCUUUCAGAAAUAUATT against Calhm5, which z-score is on record?
Its z-score is inactive: -0.53.

With GCAAGAAGUAAUCAACUUUTT against Cnot9 as the sequence, how does the z-score read?
The z-score was inactive: -0.997.

With GCUCCACACUACGUGUCAUTT against Olfr476 as the sequence, how does the z-score read?
Its z-score is inactive: 1.66.

Which z-score does the source give for GGAGGAUCACCCAUCAAAUTT against Oxct1 here?
Its z-score is inactive: -0.083.

With GGAAAAAUGAACUUCAGUGTT against Cetn2 as the sequence, how does the z-score read?
The z-score was inactive: 1.19.

For GGCCAAAGGAGUUCAUGAUTT against Gcm2, which z-score is on record?
The z-score was inactive: -0.904.

With CCUGCUCUUCGUUAUCUUGTT against Olfr552 as the sequence, how does the z-score read?
The z-score was inactive: 1.59.

With CCCUCACUGCUCAAAUUCUTT against Ifna12 as the sequence, how does the z-score read?
Its z-score is inactive: -0.0886.

For GCACAACUCAGAAGUAAUUTT against Ghr, which z-score is on record?
The z-score was inactive: 0.271.

For GGUAUCUACCAGUACGAGATT against Izumo4, which z-score is on record?
The z-score was inactive: -1.59.

For GGGAUCAUCUCUUUUGCUGTT against Olfr720, which z-score is on record?
The z-score was inactive: -1.33.

With GGAAGUUACAGAUGUGGCUTT against Nog as the sequence, how does the z-score read?
The z-score was inactive: -0.879.

With GCUCUCACAAGAUUGUUUCTT against Tcaf3 as the sequence, how does the z-score read?
The z-score was inactive: -0.408.

For GGACUAUCCUCACUCCCUUTT against Pigo, which z-score is on record?
The z-score was inactive: -0.0578.

With GGAUUUGACUAACAUAGGGTT against Pimreg as the sequence, how does the z-score read?
The z-score was inactive: 0.724.

For GGAGAUGGUUAUGUGGGAUTT against Tgoln2, which z-score is on record?
The z-score was inactive: 0.879.

Which z-score does the source give for GGAACUACGAAGUCUGUUCTT against Elavl1 here?
Its z-score is inactive: 0.271.

With GGGAGAAGAGAUUUUCUUGTT against Clec16a as the sequence, how does the z-score read?
The z-score was inactive: 1.17.

With GGUUUUUUAUUCCUGAUGGTT against Slc35f1 as the sequence, how does the z-score read?
The z-score was inactive: -1.45.

For GGCAAAUAUGAACGUGCACTT against Ptcd2, which z-score is on record?
The z-score was inactive: -0.67.

Which z-score does the source give for GGCGAGUUCCAGAUUCUUCTT against Car3 here?
The z-score was inactive: 1.69.

For CGGGUGAAGAAACAAAAAUTT against Nap1l1, which z-score is on record?
The z-score was inactive: -0.947.

For CGAAAAUCAAGGGAGCUCATT against Rnf19a, which z-score is on record?
The z-score was inactive: 0.606.

With GGAACAUGUUCUGCAUUUATT against Rab40b as the sequence, how does the z-score read?
Its z-score is inactive: -1.82.

With GGAUUCCUGAUUUCUUCAUTT against Snip1 as the sequence, how does the z-score read?
The z-score was inactive: 0.915.

For CCACAUCUUCACAAUGUCCTT against Cdk8, which z-score is on record?
The z-score was inactive: -0.981.

For CGACAUAUAAAAUUGUUCCTT against Cobl, which z-score is on record?
The z-score was inactive: 0.842.

For GCUUCAUGGAUGCAAUUGATT against Adhfe1, which z-score is on record?
The z-score was inactive: -0.659.

For GCCUAUGGACCUUAAUCGUTT against Cfap69, which z-score is on record?
The z-score was inactive: -0.463.

For GGACCAGAAGAGGAUGGUCTT against Ndn, which z-score is on record?
Its z-score is inactive: -0.0237.

For GCAACUCUUGGUUUCCUGUTT against Fam222b, which z-score is on record?
Its z-score is inactive: 1.71.

Which z-score does the source give for GCCAUGUUAACAUGAUGAUTT against Lrrc14b here?
Its z-score is inactive: -1.38.

For CGAAUUCACGAACUUGAGATT against Ccdc69, which z-score is on record?
Its z-score is inactive: 0.181.

With CGUUAGUGCUGGUUAAUGATT against Cdk5r1 as the sequence, how does the z-score read?
The z-score was inactive: -0.507.

For GCUUAACAGGAGCAUUGGCTT against Raly, which z-score is on record?
Its z-score is inactive: -0.0735.

Which z-score does the source give for GGAGAUGUCUGAUGUAACCTT against Abtb2 here?
Its z-score is inactive: -0.664.

For GGAAAGCUACUGUCAGAGUTT against Olfr473, which z-score is on record?
The z-score was inactive: -0.885.

Which z-score does the source give for GGGUAUGGAUAUGGAGGUGTT against Krt90 here?
The z-score was inactive: -1.05.

With GGCAAGGUCUUCAAAGCGCTT against Zbtb8a as the sequence, how does the z-score read?
The z-score was inactive: -1.54.

For CCACGAUUUCCCAAUCCUGTT against Fiz1, which z-score is on record?
Its z-score is inactive: -0.131.

For CCUAUCAUGUUAAAAACAGTT against Grem2, which z-score is on record?
Its z-score is inactive: -1.13.

With GGACCACUAGACCUGAUAATT against Itgb1bp1 as the sequence, how does the z-score read?
The z-score was inactive: 0.116.

Which z-score does the source give for GGACUUGGAGUUUCGUAAATT against Lmnb1 here?
The z-score was active: 2.92.

Which z-score does the source give for GCCAUGCAAAUCGAUGGGUTT against Rora here?
The z-score was active: -2.69.

For GGAAUGGACCUCAAAAUUGTT against Vmp1, which z-score is on record?
Its z-score is inactive: 0.532.

For GGAAAUUGUCUUUGGCUUUTT against Otop1, which z-score is on record?
Its z-score is inactive: -0.0923.

For GGCUGUAAUGACGAAUACATT against Naa25, which z-score is on record?
The z-score was inactive: 0.764.

For CUUUGGUAGGAAACCUCUUTT against Olfr1281, which z-score is on record?
Its z-score is inactive: 0.5.

With CGGACGACAUUACAAUUGATT against Nrxn2 as the sequence, how does the z-score read?
Its z-score is inactive: 0.123.

Which z-score does the source give for GAAACUGCUGCCUCACAUCTT against Rplp0 here?
Its z-score is inactive: -0.932.

For GGUUGGCAUCAACUACCAATT against Tuba4a, which z-score is on record?
Its z-score is inactive: 1.4.

With GGCCUUAAUUAUGUCUUAGTT against Slc25a25 as the sequence, how does the z-score read?
Its z-score is inactive: 1.21.

For CCGGUAUGGCAAAAGCCAUTT against Pomt1, which z-score is on record?
The z-score was inactive: -0.118.

For GGUUCUGUUCCCAUGAGAATT against Ntng2, which z-score is on record?
The z-score was inactive: -0.934.

For GGCUUCCAGUAAUGACAAUTT against Vwc2l, which z-score is on record?
Its z-score is inactive: -1.67.

For GGUAUUCUUGGUGUUAGAATT against Ldhal6b, which z-score is on record?
The z-score was inactive: -0.532.

For GCCCUGUUUACACCUCUGATT against Sec23a, which z-score is on record?
The z-score was inactive: -1.38.

With GGCUUCACAUUUUGGCAGUTT against Stat6 as the sequence, how does the z-score read?
The z-score was inactive: -0.942.
